Results are given in words; binding and its absence hold for the method and conditions named. Some entries that bind do so weakly or less than the wild type. Where a sequence is shown, tags or fusion partners need not be part of it.
Columns and labels:
[1] = target: T1, B. subtilis Spx (SpxBs), BACTH fusion (Bacillus subtilis) (UniProt O31602); assay: two-hybrid
T1 sequence: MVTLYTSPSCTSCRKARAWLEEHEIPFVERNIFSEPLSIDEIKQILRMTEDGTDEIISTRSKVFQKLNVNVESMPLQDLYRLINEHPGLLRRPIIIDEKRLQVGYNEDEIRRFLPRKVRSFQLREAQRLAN

The chains behind the UniProt entries cited, without tags or fusion partners.
UniProt Q9RGX0: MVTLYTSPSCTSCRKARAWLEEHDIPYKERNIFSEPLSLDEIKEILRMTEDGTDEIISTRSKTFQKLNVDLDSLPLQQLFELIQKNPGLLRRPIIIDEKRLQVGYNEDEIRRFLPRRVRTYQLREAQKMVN

[2] = target: L. monocytogenes SpxA1 fused to the T25 domain (SpxA1-T25) (Listeria monocytogenes) (UniProt Q9RGX0); assay: two-hybrid

B1: B. subtilis YjbH (YjbHBs), BACTH fusion (protein, UniProt O31606 1-299)
chain: MTNYQHELYFAHCHGHPKKPLEIYMFVDPLCPECWSLEPVIKKLKIRYGRFFTLRIIASASLTALNKKRKKHLLAEAWEKIASRSGMSCDGNVWFEQDQPLSSPYMAALAFKAAELQGRKAGMQFLRNMQESLFVSKKNITDENVLLEIAENTSLDLEEFKKDLHSQSAVKALQCDMKIAAEMDVSVNPTLTFFNTQHEDEGLKVPGSYSYDVYEEILFEMLGDEPKPSETPPLECFIEYFRFVASKEIALVYDLSLEEVEKEMKKLAFAKKVAKVEAKHGMFWKSLSTYSDEYQSCEK
- binding [1]: binds
- binding [2]: binds
